Experimental data taken from paper doi:10.1101/2023.02.16.528810.
These are yes or no findings as the source states them, for the method shown. In cells and extracts the contact can be indirect. Some binding calls cover weakened binding; strength is not graded here. Tags and fused reporters may be left off the sequences shown.

Chains of the proteins cited; added tags and fusions are not shown.
UniProt P41208: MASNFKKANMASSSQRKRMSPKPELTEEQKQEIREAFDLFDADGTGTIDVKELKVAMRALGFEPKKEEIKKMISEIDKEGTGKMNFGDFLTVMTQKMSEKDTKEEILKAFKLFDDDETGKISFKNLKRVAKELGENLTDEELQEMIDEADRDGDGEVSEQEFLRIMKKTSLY

T1: GFP-POC1B (UniProt Q8TC44)
T1 sequence: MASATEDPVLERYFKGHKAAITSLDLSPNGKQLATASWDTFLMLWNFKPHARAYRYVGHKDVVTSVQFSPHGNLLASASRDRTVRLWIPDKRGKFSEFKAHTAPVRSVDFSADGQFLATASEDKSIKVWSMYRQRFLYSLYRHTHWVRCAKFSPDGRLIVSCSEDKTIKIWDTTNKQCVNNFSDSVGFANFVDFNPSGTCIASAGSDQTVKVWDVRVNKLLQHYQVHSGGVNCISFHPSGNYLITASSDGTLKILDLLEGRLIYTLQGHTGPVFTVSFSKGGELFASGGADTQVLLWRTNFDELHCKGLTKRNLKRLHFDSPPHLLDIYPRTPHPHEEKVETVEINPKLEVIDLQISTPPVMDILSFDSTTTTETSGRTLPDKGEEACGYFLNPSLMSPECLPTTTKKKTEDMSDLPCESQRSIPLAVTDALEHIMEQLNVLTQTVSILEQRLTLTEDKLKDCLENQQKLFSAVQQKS

T2: GFP-CCDC15 (UniProt Q0P6D6)
T2 sequence: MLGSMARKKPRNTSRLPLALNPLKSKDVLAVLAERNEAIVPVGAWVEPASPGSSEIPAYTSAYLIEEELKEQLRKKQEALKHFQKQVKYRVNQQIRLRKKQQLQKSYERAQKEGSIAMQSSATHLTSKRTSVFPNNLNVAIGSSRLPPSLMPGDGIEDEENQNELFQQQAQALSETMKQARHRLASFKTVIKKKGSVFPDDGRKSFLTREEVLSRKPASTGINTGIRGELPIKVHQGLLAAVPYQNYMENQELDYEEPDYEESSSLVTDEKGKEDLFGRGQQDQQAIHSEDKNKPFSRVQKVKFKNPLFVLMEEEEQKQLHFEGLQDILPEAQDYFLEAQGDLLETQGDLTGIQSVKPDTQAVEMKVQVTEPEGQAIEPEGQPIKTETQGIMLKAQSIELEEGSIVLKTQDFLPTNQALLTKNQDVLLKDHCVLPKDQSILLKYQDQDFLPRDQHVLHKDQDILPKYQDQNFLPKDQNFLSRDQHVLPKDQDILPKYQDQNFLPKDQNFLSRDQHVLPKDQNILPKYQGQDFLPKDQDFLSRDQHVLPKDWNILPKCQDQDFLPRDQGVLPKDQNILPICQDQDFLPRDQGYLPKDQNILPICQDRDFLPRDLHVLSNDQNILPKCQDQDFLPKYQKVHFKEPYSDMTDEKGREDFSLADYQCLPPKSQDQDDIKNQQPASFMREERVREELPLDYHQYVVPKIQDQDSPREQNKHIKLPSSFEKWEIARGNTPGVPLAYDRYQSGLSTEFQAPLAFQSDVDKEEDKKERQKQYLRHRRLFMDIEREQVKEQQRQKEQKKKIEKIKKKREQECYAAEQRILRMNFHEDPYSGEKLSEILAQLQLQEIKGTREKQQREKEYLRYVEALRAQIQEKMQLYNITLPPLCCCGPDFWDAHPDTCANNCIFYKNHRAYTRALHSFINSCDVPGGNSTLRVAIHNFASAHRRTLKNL


How the values were obtained:
Experiment in all cases: co-IP
GFP-Centrin-2 = GFP-Centrin-2 (UniProt P41208)
GFP-POC1B = biological target: T1, GFP-POC1B
GFP-CCDC15 = biological target: T2, GFP-CCDC15

binding (GFP-Centrin-2) | binding (GFP-POC1B) | binding (GFP-CCDC15) | Binder
binds | binds | – | FlagBirA*-CCDC15 (protein, UniProt Q0P6D6 1-951) MLGSMARKKPRNTSRLPLALNPLKSKDVLAVLAERNEAIVPVGAWVEPASPGSSEIPAYTSAYLIEEELKEQLRKKQEALKHFQKQVKYRVNQQIRLRKKQQLQKSYERAQKEGSIAMQSSATHLTSKRTSVFPNNLNVAIGSSRLPPSLMPGDGIEDEENQNELFQQQAQALSETMKQARHRLASFKTVIKKKGSVFPDDGRKSFLTREEVLSRKPASTGINTGIRGELPIKVHQGLLAAVPYQNYMENQELDYEEPDYEESSSLVTDEKGKEDLFGRGQQDQQAIHSEDKNKPFSRVQKVKFKNPLFVLMEEEEQKQLHFEGLQDILPEAQDYFLEAQGDLLETQGDLTGIQSVKPDTQAVEMKVQVTEPEGQAIEPEGQPIKTETQGIMLKAQSIELEEGSIVLKTQDFLPTNQALLTKNQDVLLKDHCVLPKDQSILLKYQDQDFLPRDQHVLHKDQDILPKYQDQNFLPKDQNFLSRDQHVLPKDQDILPKYQDQNFLPKDQNFLSRDQHVLPKDQNILPKYQGQDFLPKDQDFLSRDQHVLPKDWNILPKCQDQDFLPRDQGVLPKDQNILPICQDQDFLPRDQGYLPKDQNILPICQDRDFLPRDLHVLSNDQNILPKCQDQDFLPKYQKVHFKEPYSDMTDEKGREDFSLADYQCLPPKSQDQDDIKNQQPASFMREERVREELPLDYHQYVVPKIQDQDSPREQNKHIKLPSSFEKWEIARGNTPGVPLAYDRYQSGLSTEFQAPLAFQSDVDKEEDKKERQKQYLRHRRLFMDIEREQVKEQQRQKEQKKKIEKIKKKREQECYAAEQRILRMNFHEDPYSGEKLSEILAQLQLQEIKGTREKQQREKEYLRYVEALRAQIQEKMQLYNITLPPLCCCGPDFWDAHPDTCANNCIFYKNHRAYTRALHSFINSCDVPGGNSTLRVAIHNFASAHRRTLKNL
– | – | binds | FLAG-FAM161A (protein, UniProt Q3B820 1-660) MATSHRVAKLVASSLQTPVNPITGARVAQYEREDPLKALAAAEAILEDEEEEKVAQPAGASADLNTSFSGVDEHAPISYEDFVNFPDIHHSNEEYFKKVEELKAAHIETMAKLEKMYQDKLHLKEVQPVVIREDSLSDSSRSVSEKNSYHPVSLMTSFSEPDLGQSSSLYVSSSEEELPNLEKEYPRKNRMMTYAKELINNMWTDFCVEDYIRCKDTGFHAAEKRRKKRKEWVPTITVPEPFQMMIREQKKKEESMKSKSDIEMVHKALKKQEEDPEYKKKFRANPVPASVFLPLYHDLVKQKEERRRSLKEKSKEALLASQKPFKFIAREEQKRAAREKQLRDFLKYKKKTNRFKARPIPRSTYGSTTNDKLKEEELYRNLRTQLRAQEHLQNSSPLPCRSACGCRNPRCPEQAVKLKCKHKVRCPTPDFEDLPERYQKHLSEHKSPKLLTVCKPFDLHASPHASIKREKILADIEADEENLKETRWPYLSPRRKSPVRCAGVNPVPCNCNPPVPTVSSRGREQAVRKSEKERMREYQRELEEREEKLKKRPLLFERVAQKNARMAAEKHYSNTLKALGISDEFVSKKGQSGKVLEYFNNQETKSVTEDKESFNEEEKIEERENGEENYFIDTNSQDSYKEKDEANEESEEEKSVEESH
– | – | no binding | V5BirA*-SAS6 (protein, UniProt Q6UVJ0 1-657) MSQVLFHQLVPLQVKCKDCEERRVSIRMSIELQSVSNPVHRKDLVIRLTDDTDPFFLYNLVISEEDFQSLKFQQGLLVDFLAFPQKFIDLLQQCTQEHAKEIPRFLLQLVSPAAILDNSPAFLNVVETNPFKHLTHLSLKLLPGNDVEIKKFLAGCLKCSKEEKLSLMQSLDDATKQLDFTRKTLAEKKQELDKLRNEWASHTAALTNKHSQELTNEKEKALQAQVQYQQQHEQQKKDLEILHQQNIHQLQNRLSELEAANKDLTERKYKGDSTIRELKAKLSGVEEELQRTKQEVLSLRRENSTLDVECHEKEKHVNQLQTKVAVLEQEIKDKDQLVLRTKEAFDTIQEQKVVLEENGEKNQVQLGKLEATIKSLSAELLKANEIIKKLQGDLKTLMGKLKLKNTVTIQQEKLLAEKEEKLQKEQKELQDVGQSLRIKEQEVCKLQEQLEATVKKLEESKQLLKNNEKLITWLNKELNENQLVRKQDVLGPSTTPPAHSSSNTIRSGISPNLNVVDGRLTYPTCGIGYPVSSAFAFQNTFPHSISAKNTSHPGSGTKVQFNLQFTKPNASLGDVQSGATISMPCSTDKENGENVGLESKYLKKREDSIPLRGLSQNLFSNSDHQRDGTLGALHTSSKPTALPSASSAYFPGQLPNS
